Measured values published in patent US8536117B2, “Oxidant resistant apolipoprotein A-1 and mimetic peptides” (The Cleveland Clinic Foundation, priority 2007, dated 2013).

Chains of the proteins cited; added tags and fusions are not shown. Lines headed by an entry give the natural chain unless they say otherwise; changes in a name come on top.
UniProt P02647: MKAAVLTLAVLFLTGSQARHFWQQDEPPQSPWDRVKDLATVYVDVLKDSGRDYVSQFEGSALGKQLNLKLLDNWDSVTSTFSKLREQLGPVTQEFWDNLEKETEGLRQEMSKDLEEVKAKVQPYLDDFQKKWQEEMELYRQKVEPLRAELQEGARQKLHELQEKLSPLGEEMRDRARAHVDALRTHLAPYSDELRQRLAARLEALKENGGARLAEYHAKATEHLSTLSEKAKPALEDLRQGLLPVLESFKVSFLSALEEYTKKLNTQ

Experiment: Detection of ApoA1 cross links by Western blotting after MPO modification
Conditions: MPO/Cl-/H2O2 oxidation at increasing doses of H2O2
From the text: FIG. 8 illustrates an immunoblot showing tryptophan to phenylalanine substituted ApoA1 is still susceptible to cross linking by MPO. rh-ApoA1, and rh-ApoA1 4WF were subjected to MPO modification at the following mole ratios of H2O2:ApoA1; 0, 1, 2, 3, 5, and 12.5 (from left to right). ApoA1 cross linking was qualitatively assessed by Western blotting. The migration of molecular weight standards is shown on the left side.
MPO at a final concentration of 57 nmol/L, prepared as previously described, was added to ApoA1 at 100 μg/mL (3.5 μmol/L) that had been extensively dialyzed against MPO reaction buffer. The reaction was initiated by adding hydrogen peroxide at varying mole ratios to ApoA1 in 4 aliquots at 15-minute intervals at 37° C., and continuing the incubation for 90 minutes, at which time 2 mmol/L L-methionine was added to quench the reaction. For chemical modification of ApoA1, sodium hypochlorite (NaOCI) was added to 100 μg/mL ApoA1 in MPO buffer at varying concentrations in 4 aliquots at 15 minutes intervals at 37° C. After a total incubation time of 60 minutes, 2 mmol/L L-metbionine was added to quench the reaction.
250 ng of ApoA1 per lane was denatured in an SDS sample buffer, run on a 10% Tris glycine gel in the presence of SDS, and the protein was transferred to a polyvinylidene fluoride (PVDF) membrane. […]

B1: rh-ApoA1 4WF: rh-ApoA1 with each of the four tryptophan residues altered to phenylalanine (protein, UniProt P02647 25-267, looked up, variant W8F W50F W72F W108F)
Apolipoprotein A-I: DEPPQSPFDRVKDLATVYVDVLKDSGRDYVSQFEGSALGKQLNLKLLDNFDSVTSTFSKLREQLGPVTQEFFDNLEKETEGLRQEMSKDLEEVKAKVQPYLDDFQKKFQEEMELYRQKVEPLRAELQEGARQKLHELQEKLSPLGEEMRDRARAHVDALRTHLAPYSDELRQRLAARLEALKENGGARLAEYHAKATEHLSTLSEKAKPALEDLRQGLLPVLESFKVSFLSALEEYTKKLNTQ
Q: Which “migration of predominant cross-linked band in denaturing gel” value does the source give for B1 here?
A: Its value is “about 70 kD”.
